Results deposited as PubChem BioAssay AID504804 (Drosophila RNAi Screening Center, 2011)
The deposit covers about 19,000 reagents; shown is a random part of those with a known target gene and a result. Of all reagents, 47 (0.25%) are marked active. 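Signals are raw, not normalised; exact z-scores behind calls not deposited; actives needed confirmation, so some wells reaching 2 SD are inactive.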 A plus sign joins genes that one reagent is predicted to hit.

- Test: 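Fly genes whose loss lessens doxorubicin-driven cell death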 (primary screen)
- Cell system: Drosophila Kc cells
- Reagent: long dsRNA against Drosophila genes, 0.5 µg dsRNA per well
- Duration: 96 h (48 h knock-down, then 48 h drug)
- Treatment: doxorubicin 5 µg/ml for 48 h, added 48 h after dsRNA
- Read-out: 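Viability measured as cellular ATP by luminescence after 48 h knock-down then 48 h doxorubicin at 5 µg/ml; unnormalised plate counts for each replicate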
- Reading the numbers: raw ATP luminescence: higher = more viable cells, protection from doxorubicin
- Call rule: 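z-score of 2 or more over plate mean in both duplicates, retained only when retests and separate dsRNAs confirm the protection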

| target | amplicon | raw ATP luminescence, replicate 1 | raw ATP luminescence, replicate 2 | activity call |
| --- | --- | --- | --- | --- |
| CG6686 | DRSC02979 | 89907 | 48590 | inactive |
| Nfs1 | DRSC02154 | 89673 | 64840 | inactive |
| Vrp1 | DRSC04148 | 89087 | 47153 | inactive |
| rad (retired record) | DRSC19687 | 3.90e5 | 3.60e5 | inactive |
| Kdm3 | DRSC16393 | 60597 | 55927 | inactive |
| CG14102 | DRSC10103 | 61010 | 67033 | inactive |
| Orcokinin | DRSC04202 | 48697 | 53633 | inactive |
| CG14020 | DRSC02350 | 24433 | 28350 | inactive |
| CG14244 | DRSC14739 | 36080 | 44740 | inactive |
| hay | DRSC11354 | 32623 | 38573 | inactive |
| E(spl)mdelta-HLH | DRSC16698 | 68380 | 60570 | inactive |
| Eaf6 | DRSC09901 | 67670 | 83697 | inactive |
| CG31327 | DRSC13019 | 2.18e5 | 2.40e5 | inactive |
| CG32262 | DRSC08165 | 41167 | 37683 | inactive |
| Atg18a | DRSC10943 | 37463 | 44917 | inactive |
| Rfx | DRSC16820 | 53673 | 55973 | inactive |
| Rpe | DRSC06407 | 63607 | 49167 | inactive |
| Snx17 | DRSC02884 | 87563 | 58333 | inactive |
| tomboy40 | DRSC04918 | 67403 | 63657 | inactive |
| CG42534 | DRSC14722 | 30170 | 31250 | inactive |
| CG42534 | DRSC14759 | 22410 | 19520 | inactive |
| CG42534 | DRSC16072 | 63150 | 52610 | inactive |
| cnir | DRSC00499 | 40747 | 29683 | inactive |
| Dyb | DRSC07208 | 55470 | 62467 | inactive |
| HDAC4 | DRSC19780 | 3.37e5 | 3.91e5 | inactive |
| Gr39b | DRSC01848 | 70550 | 54847 | inactive |
| janA | DRSC16972 | 53670 | 52970 | inactive |
| CG31031 (retired record) | DRSC13964 | 2.13e5 | 2.14e5 | inactive |
| NijC | DRSC14851 | 53160 | 53603 | inactive |
| Cyp6v1 | DRSC20565 | 3.73e5 | 3.42e5 | inactive |
| MED24 | DRSC10944 | 62570 | 88017 | inactive |
| Rab19 | DRSC11260 | 56420 | 65797 | inactive |
| babo | DRSC07581 | 44633 | 64017 | inactive |
| CG33203 | DRSC14874 | 28980 | 29370 | inactive |
| CG33203 | DRSC14876 | 67460 | 37440 | inactive |
| CG33203 | DRSC14877 | 61960 | 47080 | inactive |
| Nop60B | DRSC04627 | 69743 | 67833 | inactive |
| Dop1R2 | DRSC13958 | 1.92e5 | 2.26e5 | inactive |
| Dop1R2 | DRSC15379 | 55220 | 50920 | inactive |
| yl | DRSC20387 | 4.02e5 | 3.29e5 | inactive |
| CG9368 | DRSC11067 | 23873 | 20667 | inactive |
| PI31 | DRSC07306 | 62357 | 53910 | inactive |
| Bcs1 | DRSC02789 | 52957 | 80063 | inactive |
| resilin | DRSC05627 | 1.85e5 | 1.26e5 | inactive |
| CG14269 | DRSC17912 | 53770 | 58820 | inactive |
| CG31464 | DRSC14345 | 69527 | 59103 | inactive |
| CG30484 | DRSC05457 | 90077 | 1.08e5 | inactive |
| Cdk5alpha | DRSC03290 | 44353 | 72973 | inactive |
| drm | DRSC00277 | 33383 | 44043 | inactive |
| Mks1 | DRSC19697 | 2.28e5 | 1.47e5 | inactive |
| chm | DRSC03341 | 1.15e5 | 57413 | inactive |
| ssp6 | DRSC08791 | 1.52e5 | 1.71e5 | inactive |
| ssp6 | DRSC10677 | 74667 | 80917 | inactive |
| daw | DRSC00479 | 1.08e5 | 89813 | inactive |
| lncRNA:CR32661 | DRSC19794 | 3.57e5 | 3.25e5 | inactive |
| D19B | DRSC11134 | 93500 | 83603 | inactive |
| ckn | DRSC06149 | 64437 | 64417 | inactive |
| CG4820 | DRSC15654 | 56913 | 50083 | inactive |
| CG43102 | DRSC14797 | 44760 | 37560 | inactive |
| CG43102 | DRSC16239 | 31880 | 35590 | inactive |
| OdsH | DRSC20263 | 3.32e5 | 2.82e5 | inactive |
| CG9799 | DRSC16567 | 39880 | 23943 | inactive |
| RhoGEF2 | DRSC07531 | 61617 | 75740 | inactive |
| CG34161 | DRSC01132 | 2.84e5 | 3.11e5 | inactive |
| SPE | DRSC15135 | 38943 | 36947 | inactive |
| CG13840 | DRSC14690 | 31970 | 31110 | inactive |
| Pka-R2 | DRSC07509 | 37020 | 1.15e5 | inactive |
| SmD2 | DRSC12536 | 34253 | 40377 | inactive |
| CG2003 | DRSC15411 | 46420 | 59980 | inactive |
| CG15547 | DRSC15085 | 52670 | 35120 | inactive |
| PNUTS | DRSC00638 | 94210 | 54070 | inactive |
| Ctr1B + Poxm | DRSC16245 | 55017 | 52617 | inactive |
| beg | DRSC10923 | 24197 | 23157 | inactive |
| CG16837 | DRSC04283 | 38940 | 45733 | inactive |
| betaggt-I | DRSC03494 | 23517 | 21957 | inactive |
| CG30378 | DRSC05071 | 74650 | 93313 | inactive |
| bug | DRSC07137 | 50833 | 58480 | inactive |
| CG43672 | DRSC19452 | 4.45e5 | 3.46e5 | inactive |
| CG43672 | DRSC20108 | 3.50e5 | 3.22e5 | inactive |
| SH3PX1 | DRSC11139 | 85580 | 67880 | inactive |
| Alp12 | DRSC02515 | 58380 | 60737 | inactive |
| CG34022 (retired record) | DRSC07949 | 1.23e5 | 1.01e5 | inactive |
| Cpsf5 | DRSC10374 | 37633 | 29850 | inactive |
| Osbp | DRSC16779 | 36903 | 46190 | inactive |

9 of these entries, reformatted.
target,amplicon,"raw ATP luminescence, replicate 1","raw ATP luminescence, replicate 2",activity call
CG33203,DRSC14874,28980,29370,inactive
CG33203,DRSC14876,67460,37440,inactive
CG33203,DRSC14877,61960,47080,inactive
Nop60B,DRSC04627,69743,67833,inactive
Dop1R2,DRSC13958,1.92e5,2.26e5,inactive
Dop1R2,DRSC15379,55220,50920,inactive
yl,DRSC20387,4.02e5,3.29e5,inactive
CG9368,DRSC11067,23873,20667,inactive
PI31,DRSC07306,62357,53910,inactive
